Laboratory results: patent US11124510B2, “Alkyl chain modified imidazoquinoline TLR7/8 agonist compounds and uses thereof” (Dynavax Technologies Corporation, priority 2017, dated 2021)
At least one structure is not confirmed: it was looked up by name or label, or the drawing left a doubt.

By UniProt entry, the sequences of proteins in these tests, tags left out. Residues count along the entry.
UniProt Q9NYK1, 27-1049: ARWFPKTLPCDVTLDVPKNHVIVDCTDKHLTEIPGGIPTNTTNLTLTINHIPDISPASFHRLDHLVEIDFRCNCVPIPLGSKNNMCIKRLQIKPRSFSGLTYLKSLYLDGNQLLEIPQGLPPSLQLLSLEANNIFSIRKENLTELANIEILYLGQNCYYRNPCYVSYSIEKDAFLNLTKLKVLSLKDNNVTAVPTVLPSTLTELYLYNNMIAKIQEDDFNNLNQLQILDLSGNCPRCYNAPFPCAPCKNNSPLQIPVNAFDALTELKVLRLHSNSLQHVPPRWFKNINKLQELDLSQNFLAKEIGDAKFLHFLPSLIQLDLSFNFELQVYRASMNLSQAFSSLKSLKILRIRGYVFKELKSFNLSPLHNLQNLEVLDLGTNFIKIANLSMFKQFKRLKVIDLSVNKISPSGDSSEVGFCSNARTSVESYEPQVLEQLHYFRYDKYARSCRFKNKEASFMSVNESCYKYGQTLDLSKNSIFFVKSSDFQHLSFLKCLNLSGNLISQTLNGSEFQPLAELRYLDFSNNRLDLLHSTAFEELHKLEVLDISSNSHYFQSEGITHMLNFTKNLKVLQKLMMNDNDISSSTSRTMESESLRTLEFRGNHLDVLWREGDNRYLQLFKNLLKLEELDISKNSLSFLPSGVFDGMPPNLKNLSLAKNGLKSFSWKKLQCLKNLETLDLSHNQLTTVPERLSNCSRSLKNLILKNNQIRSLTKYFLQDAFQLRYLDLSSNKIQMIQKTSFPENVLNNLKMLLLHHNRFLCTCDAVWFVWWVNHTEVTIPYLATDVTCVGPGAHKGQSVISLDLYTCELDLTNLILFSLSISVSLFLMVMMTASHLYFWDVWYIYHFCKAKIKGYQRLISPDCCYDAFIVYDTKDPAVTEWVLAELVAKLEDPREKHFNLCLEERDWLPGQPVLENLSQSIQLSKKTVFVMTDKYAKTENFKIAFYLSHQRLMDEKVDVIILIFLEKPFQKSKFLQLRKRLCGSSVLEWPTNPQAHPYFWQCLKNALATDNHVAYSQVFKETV
UniProt Q9NR97, 27-1041: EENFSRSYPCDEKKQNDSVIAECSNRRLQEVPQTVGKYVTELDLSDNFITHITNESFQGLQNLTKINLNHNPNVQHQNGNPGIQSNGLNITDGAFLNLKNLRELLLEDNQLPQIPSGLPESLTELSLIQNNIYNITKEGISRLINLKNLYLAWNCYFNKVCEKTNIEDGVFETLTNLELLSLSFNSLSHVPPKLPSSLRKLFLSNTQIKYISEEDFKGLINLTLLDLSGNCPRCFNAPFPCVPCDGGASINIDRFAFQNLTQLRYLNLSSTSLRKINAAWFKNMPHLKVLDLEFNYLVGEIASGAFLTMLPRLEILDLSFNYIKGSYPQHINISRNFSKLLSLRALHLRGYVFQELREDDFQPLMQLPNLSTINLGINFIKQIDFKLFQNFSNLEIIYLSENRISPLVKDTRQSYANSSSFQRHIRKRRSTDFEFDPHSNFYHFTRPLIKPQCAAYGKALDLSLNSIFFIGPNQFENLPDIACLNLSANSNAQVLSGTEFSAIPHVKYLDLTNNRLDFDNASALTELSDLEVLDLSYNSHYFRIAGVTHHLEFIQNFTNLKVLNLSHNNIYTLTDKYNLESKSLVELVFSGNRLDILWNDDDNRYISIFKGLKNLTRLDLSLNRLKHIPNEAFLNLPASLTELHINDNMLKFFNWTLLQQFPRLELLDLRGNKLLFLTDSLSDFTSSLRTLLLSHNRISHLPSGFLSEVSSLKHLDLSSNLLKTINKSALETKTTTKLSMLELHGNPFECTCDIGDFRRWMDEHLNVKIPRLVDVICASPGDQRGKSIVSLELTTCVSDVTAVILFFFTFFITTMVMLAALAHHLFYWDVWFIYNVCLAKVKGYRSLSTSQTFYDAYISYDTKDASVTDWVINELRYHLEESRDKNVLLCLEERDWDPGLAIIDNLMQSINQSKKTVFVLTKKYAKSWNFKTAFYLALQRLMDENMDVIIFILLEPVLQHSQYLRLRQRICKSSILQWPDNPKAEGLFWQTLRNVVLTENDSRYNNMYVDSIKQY

Legend:
TLR7 = TLR7 (Homo sapiens (Human), UniProt Q9NYK1); experiment: TLR7 agonist bioactivity: induction of IFNα protein in pDC-enriched PBMC cultures (ELISA, 24 h); assay type: cell-based; settings: less potent than IMDQ
Description: Plasmacytoid dendritic cell (pDC)—enriched peripheral blood mononuclear cells (PBMCs) were prepared from the blood of a series of human donors (3-5 donors/experiment). PBMCs were isolated using Ficoll-Paque Premium® (GE Healthcare, Chicago Ill.) using methods well known to those in the art. pDCs were magnetically isolated from the total recovered PBMC population using CD304 (BDCA-4/Neuropilin-1) microbeads (Miltenyi Biotec, San Diego Calif.), according to the manufacturer's instructions. Isolated pDCs were then added back to between 1 and 2×10^8 of the corresponding donor's PBMCs for relative enrichment of this cell type. […] Culture supernatants were collected and interferon-alpha (IFNα) protein levels were measured by ELISA (MabTech, Cincinnati Ohio), according to the manufacturer's instructions.

TLR8 = TLR8 (Homo sapiens (Human), UniProt Q9NR97); experiment: TLR8 agonist bioactivity: induction of TNFα protein in monocyte cultures (ELISA, 24 h); assay type: cell-based; settings: less potent than IMDQ
Description: Monocytes were magnetically isolated from PBMCs, prepared as described above, following labeling with CD14 microbeads (Miltenyi Biotec, San Diego Calif.), according to the manufacturer's instructions. […] Culture supernatants were collected and tumor necrosis factor alpha (TNFα) protein levels were measured by ELISA (MabTech, Cincinnati Ohio), according to the manufacturer's instructions.

| SMILES | fold loss of TLR7 agonist potency compared to Compound No. 63-00 (IMDQ) (TLR7) [fold] | fold loss of TLR8 agonist potency compared to Compound No. 63-00 (IMDQ) (TLR8) |
| --- | --- | --- |
| CCCCCC(=O)NCc1ccc(Cn2c(CCCC)nc3c(N)nc4ccccc4c32)cc1 [Compound No. 63-02, N-(4-((4-amino-2-butyl-1H-imidazo[4,5-c]quinolin-1-yl)methyl)benzyl)hexanamide] | 11 | 10-26 fold |
| CCCCCCCCCCCCCCC(=O)NCc1ccc(Cn2c(CCCC)nc3c(N)nc4ccccc4c32)cc1 [Compound No. 63-11, N-(4-((4-amino-2-butyl-1H-imidazo[4,5-c]quinolin-1-yl)methyl)benzyl)pentadecanamide] | – | did not lose as much agonist activity |
